Measured values published in patent US11293870B2, “Vital stain” (Mie University, priority 2013, dated 2022).
For at least one compound, name, drawing or mass did not settle the structure.

Tested on: epithelial cells/adenocytes and connective tissue/capillaries
Test: Preferential staining of epithelial cells/adenocytes or connective tissue/capillaries
Assay type: in vivo, mouse
Details: 5 mg/ml for curcumin, 1 mg/ml for all other dyes

COc1cc(-c2[o+]c3cc(O)cc(O)c3cc2O)cc(OC)c1O [Malvidin]
Cell group preferentially stained (epithelial cells/adenocytes or connective tissue/capillaries): preferentially stained epithelial cells/adenocytes
